Results are given in words; binding and its absence hold for the method and conditions named. In cells and extracts the contact can be indirect. Some entries that bind do so weakly or less than the wild type.
What was measured:
[1] = target: ITK, endogenous in mouse splenic lymphocytes (mouse) (UniProt Q03526); test: competition shown indirectly: co-IP of ITK with SLP76 from stimulated splenic cells of peptide-injected mice
[2] = target: ITK, endogenous in mouse splenic lymphocytes (mouse) (UniProt Q03526); test: competition shown indirectly: co-IP of ITK with SLP76 from splenic cells of peptide-injected mice (figure legend, FIG. 7)

Sequences of proteins named here, by UniProt entry; tags and fusion partners are left off.
UniProt Q03526: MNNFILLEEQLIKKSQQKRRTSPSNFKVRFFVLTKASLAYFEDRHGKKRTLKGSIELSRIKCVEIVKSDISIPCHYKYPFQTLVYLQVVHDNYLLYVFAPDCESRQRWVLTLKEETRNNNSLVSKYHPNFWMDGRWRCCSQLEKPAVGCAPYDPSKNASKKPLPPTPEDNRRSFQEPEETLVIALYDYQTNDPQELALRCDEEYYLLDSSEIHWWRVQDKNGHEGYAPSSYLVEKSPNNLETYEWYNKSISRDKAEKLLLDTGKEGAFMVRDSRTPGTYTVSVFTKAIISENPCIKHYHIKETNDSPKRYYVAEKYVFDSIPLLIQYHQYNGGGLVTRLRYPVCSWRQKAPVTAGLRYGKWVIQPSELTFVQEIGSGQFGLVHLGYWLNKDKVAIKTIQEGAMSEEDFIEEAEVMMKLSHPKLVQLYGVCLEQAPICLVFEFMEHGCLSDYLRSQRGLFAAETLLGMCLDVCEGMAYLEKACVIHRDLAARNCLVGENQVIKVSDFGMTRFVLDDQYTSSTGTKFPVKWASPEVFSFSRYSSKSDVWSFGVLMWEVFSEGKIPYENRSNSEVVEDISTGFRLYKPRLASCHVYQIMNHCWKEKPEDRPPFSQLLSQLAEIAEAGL

RRRRRRRRRQQPPVPPQRPMA [R9-QQP, arginine-SLP76 peptide conjugate …]
binding [1]: binds | binding [2]: binds
